Primary screen of a compound library

Protein sequences, listed by entry. Tags and fused reporters are not part of them.
UniProt E9BF75, entry or part of it: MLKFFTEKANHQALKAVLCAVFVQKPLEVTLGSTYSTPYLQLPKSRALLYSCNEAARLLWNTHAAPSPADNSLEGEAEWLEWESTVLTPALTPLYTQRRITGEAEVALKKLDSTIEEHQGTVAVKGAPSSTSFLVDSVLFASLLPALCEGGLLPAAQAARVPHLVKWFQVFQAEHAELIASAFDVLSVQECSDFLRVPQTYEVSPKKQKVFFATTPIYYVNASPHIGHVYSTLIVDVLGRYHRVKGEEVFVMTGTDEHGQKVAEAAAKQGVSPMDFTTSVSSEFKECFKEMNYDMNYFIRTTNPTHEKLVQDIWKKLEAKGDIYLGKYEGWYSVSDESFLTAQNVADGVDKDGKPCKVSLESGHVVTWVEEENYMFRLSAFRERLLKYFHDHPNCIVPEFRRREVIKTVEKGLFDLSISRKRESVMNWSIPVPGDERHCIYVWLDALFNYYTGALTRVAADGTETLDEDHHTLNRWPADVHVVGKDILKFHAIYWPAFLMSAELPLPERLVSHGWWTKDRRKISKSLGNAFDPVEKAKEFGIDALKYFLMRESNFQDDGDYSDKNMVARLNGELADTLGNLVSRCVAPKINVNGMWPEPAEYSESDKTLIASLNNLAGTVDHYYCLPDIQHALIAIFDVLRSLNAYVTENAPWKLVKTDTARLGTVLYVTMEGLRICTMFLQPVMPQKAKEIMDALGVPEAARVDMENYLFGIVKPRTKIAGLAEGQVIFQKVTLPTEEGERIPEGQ

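Methionyl-tRNA synthetase (putative), Leishmania donovani (UniProt E9BF75). Primary screen of methionyl-tRNA synthetase; the read-out is not stated. The test concentration is not given. The values are filed as inhibition. Size under these conditions: about 68,000 compounds, about 24 of them at 50% or above in at least one test.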

Results are percentages, as filed. The record does not define 0% and 100%; most values in the screen are far below 50% and negative numbers occur (in some assays of this library far below -100). The compounds are a random part of those screened.

compound,Inhibition
O=C(NC1CC2(CCN(CCO)CC2)c2ccccc21)c1ccsc1 (stereo not given),6.159%
O=C(O)CSc1nnc(-c2ccn[nH]2)n1-c1ccccc1C(F)(F)F,4.902%
COc1ccccc1C(=O)Nc1cc(CC(C)C)nn1C,16.81%
CCn1ccnc1CN1CCCN(C(=O)c2ccnc(C)n2)CC1,6.842%
Cc1ccc(NC(=O)N2CCN(Cc3ccccn3)CC2)cc1Cl,14.64%
Cc1nnc2n1CCN(Cc1csc(-c3cnn(C)c3)n1)C2,16.1%
COc1ccccc1CN1CCC(O)(Cn2ccc3ncccc32)CC1,21.35%
O=C1NCCN1CCNc1cc(-c2ccncc2)nc2ccnn12,8.964%
CC(=O)Nc1nc(C(=O)N2CCCC2c2noc(C(C)C)n2)cs1 (stereo not given),10.24%
c1cc(CN2CCc3nc(N4CCOCC4)nc(NC4CC4)c3C2)co1,14.18%
CC(C)CCN1CC2(CCCN(C(=O)c3cscn3)C2)CCC1=O (stereo not given),13.39%
Cc1cc(NC(=O)c2ccc(-n3ncc(C#N)c3N)cc2)n(C)n1,18.31%
CC(=O)N1[C@H](Cn2cncn2)C[C@@H]2CN(Cc3ccncc3)CC[C@@H]21,5.537%
CCOCC1CN(Cc2ccco2)Cc2nccn2C1 (stereo not given),20.86%
Cc1cc(C)nc(N2CCC(C(=O)O)(n3ccc(C(C)(C)C)n3)CC2)n1,16.15%
Cc1nc(-c2ccc(C(=O)O)cc2)cc(C2CCN(C(C)C)CC2)n1,4.126%
CCN(CC)c1ccc(NC(=O)NCC2(C(N)=O)CCOCC2)cn1,11.56%
CCN(C)C(=O)c1coc(COc2ccccc2)n1,-3.75%
FC(F)(F)CCc1ccnc(N2CCN(Cc3ccncc3)CC2)n1,-0.7371%
CN1CCCN(c2nccc(-c3c[nH]nc3-c3ccncc3)n2)CC1,16.75%
Cc1noc(C)c1CC(=O)OCc1nc(N)c2ccccc2n1,5.236%
CN(C)C(=O)N1Cc2nnn(CC3CC3)c2C(COCC2CC2)C1 (stereo not given),-6.011%
Cc1nnc(NC(=O)NCCN(C(=O)OC(C)(C)C)C2CC2)s1,14.25%
Fc1cnc(N2CCCC3(CCN(Cc4ccsc4)C3)C2)nc1 (stereo not given),12.45%
CC(C)OCCC(=O)Nc1c(-c2ccc(F)cc2)ncn1C,13.46%
COc1ccc(NC(=O)c2ccc[nH]2)c(N2CCN(C(C)=O)CC2)n1,18.1%
Cc1cc(NC(=O)N(Cc2ccc(C#N)cc2)C(C)C)no1,12.98%
CS(=O)(=O)N1CCC(CNc2cc(Cl)ccc2C#N)CC1,15.24%
CCC(C)N(Cc1cnc(NCC(=O)O)nc1)Cc1ccsc1 (stereo not given),19.24%
Cc1ccc(NC2CCN(C(=O)Cc3cccs3)CC2)nn1,14.8%
CC(C)c1n[nH]c(C2CN(C(=O)c3cc(C4CC4)on3)CCO2)n1 (stereo not given),4.636%
Cc1noc([C@@H]2CC[C@@H]3[C@@H](CCN3S(=O)(=O)C3CC3)O2)n1,8.571%
CCOCCC(=O)NCC1CCCO1 (stereo not given),11.25%
CSCC(C)C(=O)NCc1c(C)nc2cc(=O)[nH]n2c1C (stereo not given),3.008%
CCOCc1nc2c(c(NCc3cc(C)on3)n1)CCN(C(C)=O)CC2,8.591%
CCOc1ccc(NC(C)c2nnnn2-c2ccccc2)cc1CO (stereo not given),5.389%
O=C1N(c2ccsc2)CCC12CCCN(c1ncc(F)cn1)C2 (stereo not given),18.18%
Cn1nnc2c1CCN(Cc1ccccn1)C2COCc1ccccc1 (stereo not given),4.396%
CCOc1ccc2cc(C(=O)NCCNc3ccc(C)nn3)[nH]c2c1,10.3%
O=C(NCc1ccc(Br)cc1)C1(O)CCSCC1,13.7%
CCn1nc(C)c(CCNC(=O)C2CCCN(C(=O)COC)C2)c1C (stereo not given),8.447%
CCc1nc(CN(C)C2CCN(CCS(C)(=O)=O)C2)no1 (stereo not given),11.19%
CN(C)CCOCc1nnc2n1CCN(Cc1ccsc1)C2,12.78%
CC(C)(C)SCC(=O)Nc1cc(-n2nnnc2C2CC2)ccc1F,0.8357%
CC(=O)NC1CCCN(C(=O)NCc2cccnc2)C1 (stereo not given),23.76%
CC1(C)C[C@H](CCNC(=O)c2ccncc2)c2ccccc2O1,8.01%
O=C(NCc1nn(-c2ccccc2)c2c1CCC2)NCC1COCCO1 (stereo not given),11.58%
CC(NC(=O)c1cc(Br)c2c(c1)OCCO2)C(N)=O (stereo not given),9.091%
CN(C)CCN1CC[C@H]2[C@@H]1CCN2Cc1ccc2c(c1)OCO2,5.556%
O=C(CCC(=O)N1CCOCC1)NCc1cccnc1-n1cccn1,7.94%
CN(CCc1ccccc1)C(=O)c1cccnc1OCC(F)(F)F,-2.5%
CCc1ncc(C(=O)N2CCOCC2CC(=O)c2ccccc2)s1 (stereo not given),5.017%
CC(C)C(=O)NC1COC2(CCN(C(=O)c3ccc[nH]3)CC2)C1 (stereo not given),9.444%
CCNC(=O)COc1cc(CC)c2c(C)nn(-c3ccc(C)cc3)c2n1,15.23%
COCCCC1CCCN(C(=O)CCc2csc(N)n2)C1 (stereo not given),7.143%
CCOCCN1CCN(CC(O)c2ccc(F)cc2)CC1 (stereo not given),18.81%
O=C1CC(c2ccc3c(c2)OCO3)c2cnn(C3CCCC3)c2N1 (stereo not given),6.479%
CC(Cn1cccn1)NCC(=O)NCCc1cccs1 (stereo not given),8.96%
O=C(NCC(=O)N1CCC2(CC1)OCCO2)c1ccoc1,18.03%
Nc1nnc(SCc2cc(=O)n3c4c(sc3n2)CCCC4)[nH]1,18.86%
COC(=O)C(NC(=O)c1ccco1)c1cc(F)ccc1F (stereo not given),-8.502%
CC(C)(C)c1nc2cc(NC(=O)Cn3ccc(=O)[nH]c3=O)ccc2o1,7.216%
COc1cc(C)nc(N2CCN(C(=O)c3ccc[nH]3)CC2)n1,11.11%
Cc1nc(N2CCCC2)nc2c1CCN(C(=O)CC1CC1)CC2,14.52%
Cc1nc(CNCC2CNc3ccnn3C2)cs1 (stereo not given),13.01%
COC(=O)NCC(=O)NCC1(c2c(F)cccc2F)CCCC1,15.86%
CCOC(=O)c1cnn(C2CCN(C(=O)CCC(C)C)CC2)c1N,15.14%
CN(C(=O)NCc1ccsc1)C1CCN(c2ccccc2)C1=O (stereo not given),13.68%
CC(C)c1cc(C(=O)N2CCN(CC3CC3)[C@@H]3CS(=O)(=O)C[C@@H]32)no1,16.31%
CCC(C)(NCC(=O)NC(C)C)c1nc(C)cs1 (stereo not given),6.406%
O=C(c1cc[nH]n1)N1CCc2ncnc(N3CCSCC3)c2CC1,-8.273%
COc1ccc(CNc2nnc(CC(C)(C)C)o2)cc1C#N,16.42%
Cn1cc(C(=O)N2CCCC(Cc3cnccn3)C2)cn1 (stereo not given),10.92%
NC(=O)CS(=O)(=O)Cc1csc(-c2ccc(F)cc2)n1,1.681%
CSC(C)(C)CNC(=O)NC1CCSCC1,15.61%
Cc1cnn(CCNCC(=O)N2CCN(c3ccccn3)CC2)c1,6.497%
O=S(=O)(C1CC1)N1CCO[C@@H]2CN(Cc3ccco3)C[C@@H]2C1,9.589%
CC(C)(C)n1cc(C2=CCN(CCc3ccccc3)CC2)cn1,17.7%
COC(=O)CN(C(=O)c1cc(C(C)C)no1)c1cccc(F)c1,17.16%
CC(C)(C)c1cccc(OCC(=O)NS(=O)(=O)c2cccnc2)c1,14.21%
CCS(=O)(=O)NCCN1CCc2ccc(F)cc2C1C (stereo not given),15.07%
CN(Cc1cnn(C)c1)C(=O)NCCc1ccc2c(c1)OCO2,14.29%
O=C(C1CCOC1)N1CCN(Cc2ccc3c(c2)CCO3)CC1 (stereo not given),15.43%
Cc1cnc(N2CCCOC(CN3CCCCC3)C2)nc1 (stereo not given),5.282%
O=C(c1cncc(N2CCCC3(CCNCC3)CC2)n1)N1CCCCC1,7.532%

10 of the entries, repeated:

| compound | Inhibition |
|---|---|
| `COC(=O)NCC(=O)NCC1(c2c(F)cccc2F)CCCC1` | 15.86% |
| `CCC(C)(NCC(=O)NC(C)C)c1nc(C)cs1` (stereo not given) | 6.406% |
| `CS(=O)(=O)N1CCC(CNc2cc(Cl)ccc2C#N)CC1` | 15.24% |
| `CCc1ncc(C(=O)N2CCOCC2CC(=O)c2ccccc2)s1` (stereo not given) | 5.017% |
| `COC(=O)CN(C(=O)c1cc(C(C)C)no1)c1cccc(F)c1` | 17.16% |
| `CC(=O)NC1CCCN(C(=O)NCc2cccnc2)C1` (stereo not given) | 23.76% |
| `Cc1noc([C@@H]2CC[C@@H]3[C@@H](CCN3S(=O)(=O)C3CC3)O2)n1` | 8.571% |
| `c1cc(CN2CCc3nc(N4CCOCC4)nc(NC4CC4)c3C2)co1` | 14.18% |
| `Cc1nc(N2CCCC2)nc2c1CCN(C(=O)CC1CC1)CC2` | 14.52% |
| `CCOCCC(=O)NCC1CCCO1` (stereo not given) | 11.25% |

Measurements from “University of Dundee, Small-Polar-MMV Screening Library” (2021), ChEMBL document CHEMBL3988442.